Experimental data: PubChem BioAssay AID1259405 (NCATS, 2018)
The deposit covers about 50,000 reagents; below is an unselected part. Over the whole deposit, about 4,000 (8%) are marked active. 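Mouse siRNA library applied to hamster cells; one well for each siRNA.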 Unmarked entries are inactive. The numbers tell different reagents against one gene apart.

Test: 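Silenced genes that increase secreted GFP made by CHO cells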 (primary screen)
Cells: Chinese hamster CHO-K1 ovary cells with stable secreted eGFP expression
Reagent: single siRNA against mouse genes, 0.8 pmol siRNA per well (2 µl of 400 nM stock)
Time to read-out: 3 days
Detection: 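Per-well intracellular GFP measured by laser scanning cytometry, plus viability from ATP luminescence, each relative to plate median of non-targeting control wells, in %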
Scale: GFP, % of control: higher = more GFP per well, higher productivity; viability (ATP), % of control: higher = more viable cells (more ATP)
Call rule: 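Called active when intracellular GFP, relative to negative control, is at or above 120%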

gene,siRNA no.,"GFP, % of control","viability (ATP), % of control"
Aamdc,1,57.5,84.4
Aamdc,2,57.3,56.8
Aamdc,3,82.5,94.7
Igfbpl1,1,102,81.3
Igfbpl1,2,117,79.3
Igfbpl1,3,98.7,86.5
Gtpbp10,1,52.7,48.9
Gtpbp10,2,37.2,59.7
Gtpbp10,3,88.5,65.4
Scgb2b24,1,48.7,83.5
Scgb2b24,2,83.6,85
Scgb2b24,3,107,87.4
S100a11,1,62.4,71.7
S100a11,2,79.5,56.1
S100a11,3,87.5,66.9
Elovl6,1,129 (active),118
Elovl6,2,110,194
Elovl6,3,67.4,117
Hic1,1,102,87.5
Hic1,2,79.6,72.3
Hic1,3,87.8,69
Gsn,1,53.8,71
Gsn,2,51.7,71.4
Prune1,1,117,47.1
Prune1,2,32.5,16.8
Prune1,3,70.6,73
Ceacam2,1,64,67
Ceacam2,2,62.7,84
Ceacam2,3,64,74.7
Stab2,1,85.3,70.1
Stab2,2,131 (active),77.9
Stab2,3,91.9,86.9
Clec4a1,1,54.7,53.7
Clec4a1,2,51.9,57.6
Clec4a1,3,58.5,48.7

Records listed so far called active, once more:
gene,siRNA no.,"GFP, % of control","viability (ATP), % of control"
Elovl6,1,129 (active),118
Stab2,2,131 (active),77.9
